According to patent US20130196865A1, “METHOD FOR SELECTING AN IPS CELL” (THE GENERAL HOSPITAL CORPORATION, priority 2010, published 2013):
At least one structure is not confirmed: it was looked up by name or label, or the drawing left a doubt.

Test system: Meg3/Gtl2 expression in Gtl2^off and Gtl2^on iPSC subclones
Assay: Subcloning of iPSCs in presence of doxycycline, Meg3/Gtl2 expression by qPCR
Assay type: cell-based, mouse
Conditions: doxycycline administered during subcloning

C[C@H]1c2cccc(O)c2C(=O)C2=C(O)[C@]3(O)C(=O)C(C(N)=O)=C(O)[C@@H](N(C)C)[C@@H]3[C@@H](O)[C@@H]21 [doxycycline]
Meg3/Gtl2 expression pattern of subclones: not altered
